Experimental data: PMC5717261
Results are given in words; binding and its absence hold for the method and conditions named. Where a sequence is shown, tags or fusion partners need not be part of it.

What was measured:
[1] = biological target: T1, Recombinant human bone morphogenetic protein-1 (BMP-1) with a C-terminal FLAG tag (human) (UniProt P13497); test: SPR; single injections over immobilised BMP-1 (2,300 RU) or mTLL-1 (1,120 or 310 RU): C1q CLR, C1q GR and MBL CRD at 500 nM; wt MBL, K55A and K55E at 16 nM; 50 mM triethanolamine-HCl, 145 mM NaCl, 2 mM CaCl2, 0.005% P20, pH 7.4; both purified
T1 sequence: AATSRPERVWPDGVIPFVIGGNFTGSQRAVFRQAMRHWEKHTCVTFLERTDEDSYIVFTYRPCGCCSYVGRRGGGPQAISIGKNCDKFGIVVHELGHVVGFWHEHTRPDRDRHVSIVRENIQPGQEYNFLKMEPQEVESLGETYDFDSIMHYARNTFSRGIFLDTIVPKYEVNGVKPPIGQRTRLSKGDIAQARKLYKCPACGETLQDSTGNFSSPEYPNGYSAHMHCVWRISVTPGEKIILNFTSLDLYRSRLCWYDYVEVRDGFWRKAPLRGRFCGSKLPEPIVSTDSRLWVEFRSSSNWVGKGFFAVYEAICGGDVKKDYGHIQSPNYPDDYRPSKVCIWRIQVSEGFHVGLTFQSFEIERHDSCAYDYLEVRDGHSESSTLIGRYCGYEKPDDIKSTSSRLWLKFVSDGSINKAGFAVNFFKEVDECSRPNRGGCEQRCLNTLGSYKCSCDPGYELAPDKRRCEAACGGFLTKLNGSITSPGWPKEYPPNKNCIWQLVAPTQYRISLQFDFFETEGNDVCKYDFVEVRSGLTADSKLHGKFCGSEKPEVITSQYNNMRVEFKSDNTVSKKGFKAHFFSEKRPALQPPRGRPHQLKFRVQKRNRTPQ

[2] = biological target: T2, Recombinant human mammalian tolloid-like-1 (mTLL-1) with a C-terminal 6x-His tag (human) (UniProt O43897); test: as above
T2 sequence: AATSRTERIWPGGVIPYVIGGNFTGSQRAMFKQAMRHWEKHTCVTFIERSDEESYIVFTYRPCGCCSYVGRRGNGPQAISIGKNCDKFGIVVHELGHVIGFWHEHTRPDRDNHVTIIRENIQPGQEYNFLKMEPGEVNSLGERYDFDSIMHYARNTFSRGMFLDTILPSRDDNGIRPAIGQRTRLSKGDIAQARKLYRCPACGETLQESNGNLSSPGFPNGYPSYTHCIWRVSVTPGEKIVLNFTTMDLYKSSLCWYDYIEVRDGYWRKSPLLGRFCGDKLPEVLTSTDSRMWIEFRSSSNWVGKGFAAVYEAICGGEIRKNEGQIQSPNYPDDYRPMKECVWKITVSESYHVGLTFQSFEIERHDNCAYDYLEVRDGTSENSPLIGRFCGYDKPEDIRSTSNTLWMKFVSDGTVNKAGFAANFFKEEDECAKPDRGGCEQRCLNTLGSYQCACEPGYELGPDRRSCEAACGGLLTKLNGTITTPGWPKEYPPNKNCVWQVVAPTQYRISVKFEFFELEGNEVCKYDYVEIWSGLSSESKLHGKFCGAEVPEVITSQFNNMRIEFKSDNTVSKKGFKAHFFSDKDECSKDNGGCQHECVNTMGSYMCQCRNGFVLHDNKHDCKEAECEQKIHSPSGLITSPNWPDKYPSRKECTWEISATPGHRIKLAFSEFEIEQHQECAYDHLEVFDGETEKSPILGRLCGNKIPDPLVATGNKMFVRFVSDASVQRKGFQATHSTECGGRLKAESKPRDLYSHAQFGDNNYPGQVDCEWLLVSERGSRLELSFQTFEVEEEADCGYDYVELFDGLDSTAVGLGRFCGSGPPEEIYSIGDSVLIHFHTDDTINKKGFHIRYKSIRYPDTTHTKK

binding [1]: no binding (tested: 500 nM) | binding [2]: no binding (tested: 500 nM)
Substance: recombinant trimeric carbohydrate recognition domain of MBL (CRD) (human) (domain or fragment)
